One substance from PMC9900518 can be followed below.

The target in the assay is T1, GST-DNA ligase IV, human DNA ligase IV residues 618-911 (human) (UniProt P49917).
T1 sequence: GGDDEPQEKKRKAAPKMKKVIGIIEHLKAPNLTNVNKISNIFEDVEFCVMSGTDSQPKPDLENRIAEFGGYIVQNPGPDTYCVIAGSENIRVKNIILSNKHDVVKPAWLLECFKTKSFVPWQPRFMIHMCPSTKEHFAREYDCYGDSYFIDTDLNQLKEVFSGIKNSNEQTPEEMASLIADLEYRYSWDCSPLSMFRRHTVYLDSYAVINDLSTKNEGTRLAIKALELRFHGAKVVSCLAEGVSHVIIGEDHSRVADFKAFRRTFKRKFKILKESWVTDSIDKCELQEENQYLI
Put plainly: pull-down; GST-tagged protein from E. coli immobilised on glutathione-Sepharose beads; cleared cell lysate (HEK, HeLa, Hs578T or Cos7) as the source of the partner; 4 hours at 4°C; immunoblot; only the target purified. Background: A western blot detects proteins with antibodies after separation by electrophoresis.

No constants are given. Whether binding was seen depends on the method and setting. In cells and extracts the contact can be indirect. Binding can be weak; no strength is given. Tags and fused reporters may be left off the sequences shown.

“FLAG-tagged full-length GIV wild type (human)”: the binding result is reported as “binds”.
